Results published in patent US4487708A (priority 1981, dated 1984).

Test: stepwise test for identification of mu-amines with hydroquinone
Design: key: An asterisk (*) in a column indicates a positive result
Settings: for Results upon completion of Step 4: Possible mu-Amine / Results upon completion of Step 4: Not mu-Amine: 10 g amine, 10 g hydroquinone, 80 g water; for Results upon completion of Step 4: Possible mu-Amine: no precipitate; for Results upon completion of Step 8: Definite mu-Amine: at least 70% of dissolved oxygen removed within one minute, pH 9-10; for Results upon completion of Step 6: Possible mu-Amine: passes 5 micron filter paper unhindered; for Results upon completion of Step 4: Not mu-Amine: precipitation within the jar

| Compound | Results upon completion of Step 4: Possible mu-Amine | Results upon completion of Step 8: Definite mu-Amine | Results upon completion of Step 6: Possible mu-Amine | Results upon completion of Step 4: Not mu-Amine |
| --- | --- | --- | --- | --- |
| CC(O)CN (centres unmarked) [Monoisopropanolamine] | * | * | * |  |
| CC(O)CNCC(C)O (centres unmarked) [Diisopropanolamine] | * | * | * |  |
| COCCCN [Methoxypropylamine] | * | * | * |  |
| NCCN [Ethylenediamine] | * | * | * |  |
| NC1CCCCC1 [Cyclohexylamine] |  |  |  | * |
| NCCO [Monoethanolamine] | * | * | * |  |
| CCC(C)N (centres unmarked) [sec-Butylamine] | * | * | * |  |
| NCCNCCNCCN [Triethylenetetramine] | * | * | * |  |
| C1CN2CCN1CC2 [Triethylenediamine] |  |  |  | * |
| NCCCCCCN [Hexamethylenediamine] |  |  |  | * |
| CN(C)CCCN [Dimethylaminopropylamine] | * | * | * |  |
| CC(C)(C)N [tert-Butylamine] |  |  |  | * |
| Dimethyl(iso)propanolamine | * | * | * |  |
| C1COCCN1 [Morpholine] |  |  |  | * |
